Measurements reported in PubChem BioAssay AID1259308 (NCATS, 2017).
Here is one part, drawn at random, of about 59,000 reagents. Of all reagents, about 1,510 (2.6%) are marked active. 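Calls use total luciferase alone and ignore viability, so some active siRNAs may act by altering cell number.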 Unmarked entries are inactive. The numbers tell different reagents against one gene apart. Not all columns of the deposit are shown.

Purpose: 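Candidate targets for better recombinant protein yield in mammalian cells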 (primary screen)
System: human HEK293 embryonic kidney cells stably expressing firefly luciferase (HEK-CMV-Luc2-Hygro)
Reagents: single siRNA against human genes, 0.8 pmol siRNA per well
Time to read-out: 72 h
Read-out: 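Reporter luminescence and viable-cell signal on separate replicate plates, given as percent of non-targeting control and median/MAD z-scores, plus per-cell luciferase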
Direction: total luciferase, z-score: higher = more reporter protein produced
Call rule: 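Active when the median/MAD z-score for overall luciferase is greater than 3; a gene was taken forward for validation with new siRNAs if at least two of its three siRNAs passed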
Calls: active = raised luciferase; inactive = no rise

ARHGEF25 #1 scored total luciferase, z-score -0.669.
For ARHGEF25 #2 the deposit lists total luciferase, z-score -1.62.
Knock-down of ARHGEF25 #3 gave: total luciferase, z-score 0.822.
TUBA3E #1 showed total luciferase, z-score -0.0372.
Silencing of TUBA3E #2 resulted in: total luciferase, z-score 0.421.
For TUBA3E #3, the values are total luciferase, z-score 0.892.
Depletion of DCLK1 #1 gave: total luciferase, z-score 1.07.
DCLK1 #2 showed total luciferase, z-score 0.267.
After knock-down of DCLK1 #3 the results were total luciferase, z-score -0.0847.
With knock-down of TWSG1 #1, the screen gave total luciferase, z-score -1.9.
TWSG1 #2 gave total luciferase, z-score -0.192.
Silencing of TWSG1 #3 resulted in: total luciferase, z-score 0.361.
Depletion of IGF2BP1 #1 resulted in: total luciferase, z-score -0.381.
After knock-down of IGF2BP1 #2 the results were total luciferase, z-score -1.25.
For IGF2BP1 #3, the values are total luciferase, z-score -0.947.
After knock-down of HTATSF1P2 #1, the screen gave total luciferase, z-score -0.000217.
HTATSF1P2 #2 scored total luciferase, z-score 0.0956.
After knock-down of HTATSF1P2 #3, the screen gave total luciferase, z-score -0.122.

In a second layout: results already given.
gene knocked down,reagent,"total luciferase, z-score"
TWSG1,3,0.361
IGF2BP1,1,-0.381
IGF2BP1,2,-1.25
IGF2BP1,3,-0.947

The list goes on.
HIRIP3 #1 gave total luciferase, z-score -0.517.
HIRIP3 #2 gave total luciferase, z-score -0.782.
Against HIRIP3 #3, the entry reads total luciferase, z-score -0.189.
Knock-down of LINC00705 #1 came out at: total luciferase, z-score -1.48.
After knock-down of LINC00705 #2, the record shows total luciferase, z-score -0.943.
Against LINC00705 #3, the values are total luciferase, z-score 0.465.
After knock-down of ZBED10P #1, the record shows total luciferase, z-score 2.21.
ZBED10P #2 gave total luciferase, z-score 0.114.
For ZBED10P #3 the deposit lists total luciferase, z-score 0.216.
After knock-down of USP50 #1, the screen gave total luciferase, z-score -1.02.
Depletion of USP50 #2 gave: total luciferase, z-score -2.04.
For USP50 #3 the deposit lists total luciferase, z-score 0.187.
Against INAVA #1, the entry reads total luciferase, z-score -2.51.
Silencing of INAVA #2 resulted in: total luciferase, z-score -1.57.
After knock-down of INAVA #3 the results were total luciferase, z-score -0.651.
